In paper PMC8346855:
Results are given in words; binding and its absence hold for the method and conditions named. Some binding calls cover weakened binding; strength is not graded here.

Molecular target: Gβ1 of bovine transducin (bovine)
Test: cross-linking + other: high-mass MALDI-MS; Gαi incubated with Gβ and Gγ, cross-linked with the shorter cross-linkers DSS (spacer arm 11.4 Å) or BS(PEG)5 (21.7 Å); both purified

binding: binds
B1: Gγ1 of bovine transducin (protein)
chain: MPVINIEDLTEKDKLKMEVDQLKKEVTLERMLVSKCCEEFRDYVEERSGEDPLVKGIPEDKNPFKELKGGCVIS
